Assay in all cases: glycan array binding signal (z-score within array); higher = stronger binding
Holding throughout (settings): glycan notation: IUPAC condensed, linker removed

Assay [1] deals with Gal(b1-4)GlcNAc(b1-2)Man(a1-6)[GlcNAc(b1-2)Man(a1-3)]Man(b1-4)GlcNAc(b1-4)GlcNAc. An outline of the steps: (§1)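 Columns mapping to the same glycan were averaged after glycan names were converted to IUPAC-condensed notation. The data come from 3228 arrays in the Consortium for Functional Glycomics database, limited to those with an available protein sequence. Binding is reported as a within-array Z-score averaged across arrays of one protein sequence and across linkers.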

For assay [2], the target named is Gal(b1-4)GlcNAc(b1-2)Man(a1-6)[Man(a1-3)]Man(b1-4)GlcNAc(b1-4)GlcNAc. An outline of the steps:
as §1

The target of assay [3] is Gal(b1-4)GlcNAc(b1-2)[Gal(b1-4)GlcNAc(b1-4)]Man(a1-3)[Gal(b1-4)GlcNAc(b1-2)Man(a1-6)]Man(b1-4)GlcNAc(b1-4)GlcNAc. In short, it runs like this:
as §1

Assay [4] concerns the target Gal(b1-4)GlcNAc(b1-2)[Gal(b1-4)GlcNAc(b1-4)]Man(a1-3)[Gal(b1-4)GlcNAc(b1-2)[Gal(b1-4)GlcNAc(b1-6)]Man(a1-6)]Man(b1-4)GlcNAc(b1-4)GlcNAc. An outline of the steps:
as §1

In assay [5] the target is Gal(b1-4)GlcNAc(b1-3)Gal(b1-3)GlcNAc. In short, it runs like this:
as §1

Assay [6] has as its target Gal(b1-4)GlcNAc(b1-3)Gal(b1-4)Glc. In short, it runs like this:
as §1

Assay [7] has as its target Gal(b1-4)GlcNAc(b1-3)Gal(b1-4)GlcNAc. In short, it runs like this:
as §1

Assay [8] addresses Gal(b1-4)GlcNAc(b1-3)Gal(b1-4)GlcNAc(b1-3)Gal(b1-4)GlcNAc. An outline of the steps: as §1
Assay [9] addresses Gal(b1-4)GlcNAc(b1-3)Gal(b1-4)[Fuc(a1-3)]GlcNAc(b1-3)Gal(b1-4)[Fuc(a1-3)]GlcNAc. An outline of the steps: as §1
The target of assay [10] is Gal(b1-4)GlcNAc(b1-3)GalNAc. In short, it runs like this:
as §1

Assay [11] concerns the target Gal(b1-4)GlcNAc(b1-3)[Gal(b1-4)GlcNAc(b1-6)]Gal(b1-4)GlcNAc. In short, it runs like this:
as §1

The target in assay [12] is Gal(b1-4)GlcNAc(b1-3)[Gal(b1-4)GlcNAc(b1-6)]GalNAc. An outline of the steps: as §1
Assay [13] has as its target Gal(b1-4)GlcNAc(b1-3)[GlcNAc(b1-6)]Gal(b1-4)GlcNAc. In short, it runs like this:
as §1

In assay [14] the target is Gal(b1-4)GlcNAc(b1-6)Gal(b1-4)GlcNAc. An outline of the steps:
as §1

Assay [15] addresses Gal(b1-4)GlcNAc(b1-6)GalNAc. In short, it runs like this: as §1
The target of assay [16] is Gal(b1-4)GlcNAc(b1-6)[Gal(b1-3)]GalNAc. In short, it runs like this:
as §1

The next assay has as its target Gal3S(b1-3)GalNAc. An outline of the steps:
as §1

In a further assay the target is Gal3S(b1-3)GlcNAc. An outline of the steps: as §1
Assay [17] deals with Gal3S(b1-3)[Fuc(a1-4)]GlcNAc. In short, it runs like this: as §1
The next assay has as its target Gal3S(b1-4)Glc. In short, it runs like this:
as §1

A further assay has as its target Gal3S(b1-4)Glc6S. An outline of the steps:
as §1

For the next assay, the target named is Gal3S(b1-4)GlcNAc. An outline of the steps:
as §1

In the next assay the target is Gal3S(b1-4)GlcNAc6S. In short, it runs like this:
as §1

Some of the results follow.

B1: SspB (Streptococcus gordonii), P16952 (protein)
chain: MKNKKEVYGFRKSKVAKTLCGAVLGTALIAFADKAVFADEVTETTSTSTVEVATTGNPATNLPEAQGEMSQVAKESQAKAGSKESALPVEVSSADLDKAVADAKSAGVKVVQDETKDKGTATTATDNAQKQDEIKSDYAKQAEEIKTTTEAYKKEVAAHQAETDKINAENKAADDKYQKDLKSHQEEVEKINTANATAKAEYEAKLAQYQKDLATVKKANEDSQQDYQNKLSAYQTELARVQKANAEAKEAYEKAVKENTAKNEALKVENEAIKQRNETAKATYEAAMKQYEADLAAIKKANEDNDADYQAKLAAYQTELARVQKANAEAKEAYDKAVKENTAKNTAIQAENEAIKQRNETAKATYDAAVKKYEADLAAVKQANATNEADYQAKLAAYQTELARVQKANADAKATYEKAVEDNKAKNAAIKAENEEIKQRNAVAKTDYEAKLAKYEADLAKYKKEFAAYTAALAEAESKKKQDGYLSEPRSQSLNFKSEPNAIRTIDSSVHQYGQQELDALVKSWGISPTNPDRKKSRAYSYFNAINSNNTYAKLVLEKDKPVDVTYTGLKNSSFNGKKISKVVYTYTLKETGFNDGTKMTMFASSDPTVTAWYNDYFTSTNINVKVKFYDEEGQLMNLTGGLVNFSSLNRGNGSGAIDKDAIESVRNFNGRYIPISGSSIKIHENNSAYADSSNAEKSLGARWNTSEWDTTSSPNNWYGAIVGEITQSEISFNMASSKSGNIWFAFNSNINAIGVPTKPVAPTAPTQPMYETEKPLEPAPVAPSYENEPTPPVKTPDQPEPSKPEEPTYETEKPLEPAPVAPSYENEPTPPVKTPDQPEPSKPEEPNYETEKPLEPAPVAPSYENEPTPPVKIPDQPEPSKPEEPTYDPLPTPPLAPTPKQLPTPPVVPTVHFHYSSLLAQPQINKEIKNEDGVDIDRTLVAKQSIVKFELKTEALTAGRPKTTSFVLVDPLPTGYKFDLDATKAASTGFDTTYDEASHTVTFKATDETLATYNADLTKPVETLHPTVVGRVLNDGATYTNNFTLTVNDAYGIKSNVVRVTTPGKPNDPDNPNNNYIKPTKVNKNKEGLNIDGKEVLAGSTNYYELTWDLDQYKGDKSSKEAIQNGFYYVDDYPEEALDVRPDLVKVADEKGNQVSGVSVQQYDSLEAAPKKVQDLLKKANITVKGAFQLFSADNPEEFYKQYVATGTSLVITDPMTVKSEFGKTGGKYENKAYQIDFGNGYATEVVVNNVPKITPKKDVTVSLDPTSENLDGQTVQLYQTFNYRLIGGLIPQNHSEELEDYSFVDDYDQAGDQYTGNYKTFSSLNLTMKDGSVIKAGTDLTSQTTAETDATNGIVTVRFKEDFLQKISLDSPFQAETYLQMRRIAIGTFENTYVNTVNKVAYASNTVRTTTPIPRTPDKPTPIPTPKPKDPDKPETPKEPKVPSPKVEDPSAPIPVSVGKELTTLPKTGTNDATYMPYLGLAALVGFLGLGLAKRKED
As for B1, the “glycan array binding signal (z-score)” value in [1] is 0.126; in [2], 0.917; in [3], 1.08; in [4] it was -0.878; in [5] it was 1.04; in assay [6] it was -0.77. Also, the “glycan array binding signal (z-score)” value in [7] is -0.814; in assay [8], -0.604; in assay [9], 1.4; in assay [10], 0.26; in [11], 0.02; in assay [12], 5.73. In addition, the “glycan array binding signal (z-score)” value was -0.783 in assay [13]; -0.291 in assay [14]; 0.085 in assay [15]; -1.35 in assay [16]; 1 with Gal3S(b1-3)GalNAc; -0.711 with Gal3S(b1-3)GlcNAc. The “glycan array binding signal (z-score)” value in assay [17] was -1.75; in the assay with Gal3S(b1-4)Glc it was -0.398; with Gal3S(b1-4)Glc6S, -0.598; with Gal3S(b1-4)GlcNAc it was -0.398; in the assay with Gal3S(b1-4)GlcNAc6S it was -0.73.

These data come from the supplement of paper PMC8728848.
